Measurements published in PMC11361910.
Results are given in words; binding and its absence hold for the method and conditions named. Binding seen in cells or lysates may run through a third protein. Some binding calls cover weakened binding; strength is not graded here. For some assays here: Tags and fused reporters may be left off the sequences shown.

The chains behind the UniProt entries cited, without tags or fusion partners.
UniProt P35222: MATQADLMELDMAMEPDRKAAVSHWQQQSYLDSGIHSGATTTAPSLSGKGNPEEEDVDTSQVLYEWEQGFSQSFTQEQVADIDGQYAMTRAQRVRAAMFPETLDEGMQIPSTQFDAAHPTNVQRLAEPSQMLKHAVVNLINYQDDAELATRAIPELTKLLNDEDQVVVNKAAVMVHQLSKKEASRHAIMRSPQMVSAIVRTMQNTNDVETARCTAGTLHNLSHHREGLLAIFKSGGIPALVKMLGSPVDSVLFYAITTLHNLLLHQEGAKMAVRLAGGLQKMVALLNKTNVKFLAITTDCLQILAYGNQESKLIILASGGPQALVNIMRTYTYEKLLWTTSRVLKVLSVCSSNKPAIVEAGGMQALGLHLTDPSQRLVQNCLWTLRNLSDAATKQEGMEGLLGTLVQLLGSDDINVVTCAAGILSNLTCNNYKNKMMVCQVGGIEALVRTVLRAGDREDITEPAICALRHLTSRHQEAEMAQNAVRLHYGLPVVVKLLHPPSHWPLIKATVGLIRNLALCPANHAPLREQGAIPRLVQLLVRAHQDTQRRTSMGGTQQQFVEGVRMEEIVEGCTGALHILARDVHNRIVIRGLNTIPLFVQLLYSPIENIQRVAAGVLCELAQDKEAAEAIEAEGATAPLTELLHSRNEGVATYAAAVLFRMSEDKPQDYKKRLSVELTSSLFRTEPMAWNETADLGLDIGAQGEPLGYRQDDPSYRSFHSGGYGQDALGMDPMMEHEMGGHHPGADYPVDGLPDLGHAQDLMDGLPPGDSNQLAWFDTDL

Assays:
IL13RA2 (Flag-tagged) = target: T1, IL13RA2 (Flag-tagged) (UniProt Q14627); assay: co-IP; HEK293 cells transfected with Flag-tagged IL13RA2 or HA-tagged β-catenin expression vector; protein A/G agarose beads with anti-FLAG and anti-HA added to cell lysates
T1 sequence: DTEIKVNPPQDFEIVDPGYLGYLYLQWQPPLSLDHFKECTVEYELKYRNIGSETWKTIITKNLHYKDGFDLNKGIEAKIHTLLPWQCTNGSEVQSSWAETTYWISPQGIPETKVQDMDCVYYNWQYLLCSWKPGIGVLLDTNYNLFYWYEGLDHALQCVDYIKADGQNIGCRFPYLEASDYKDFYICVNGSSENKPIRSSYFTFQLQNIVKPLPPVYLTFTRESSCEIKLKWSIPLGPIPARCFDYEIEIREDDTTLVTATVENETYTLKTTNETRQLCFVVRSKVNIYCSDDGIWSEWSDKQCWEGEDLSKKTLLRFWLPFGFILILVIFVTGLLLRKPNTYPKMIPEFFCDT

[1] = target: T2, endogenous IL13RA2 (human (endogenous in HemECs)) (UniProt Q14627); assay: co-IP; HemECs lysates; immunoprecipitation with antibodies to IL13RA2 and β-catenin; endogenous proteins
T2 sequence: T1 sequence

Row | Substance | binding (IL13RA2 (Flag-tagged)) | binding [1]
1 | β-catenin (HA-tagged) (from UniProt P35222 1-781) | binds | –
2 | endogenous β-catenin (from UniProt P35222 1-781) | – | binds
